Laboratory results: doi:10.1101/2020.07.22.215871
No constants are given. Whether binding was seen depends on the method and setting. Binding seen in cells or lysates may run through a third protein. A yes stands for co-enrichment or nearness to the bait. Other partners may have been found.

Biological target: YFP-TAC102 (Trypanosoma brucei) (UniProt Q57XN5)
Test: affinity purification with mass spectrometry

Tb927.11.16120 (from UniProt Q381H4)
binding: binds

TAC65 (from UniProt Q57W28)
binding: binds

TAC40 (from UniProt Q581S0)
binding: binds

TAC60 (from UniProt Q57WR0)
binding: binds
